These are yes or no findings as the source states them, for the method shown. Binding seen in cells or lysates may run through a third protein. Binding can be weak; no strength is given. Where a sequence is shown, tags or fusion partners need not be part of it.
Biological target: Flag-NEMO coil zipper (COZI) domain
Experiment: co-IP

B1: HA-tagged N4BP1 (full length) (protein, UniProt O75113 1-896)
chain: MAARAVLDEFTAPAEKAELLEQSRGRIEGLFGVSLAVLGALGAEEPLPARIWLQLCGAQEAVHSAKEYIKGICEPELEERECYPKDMHCIFVGAESLFLKSLIQDTCADLCILDIGLLGIRGSAEAVVMARSHIQQFVKLFENKENLPSSQKESEVKREFKQFVEAHADNYTMDLLILPTSLKKELLTLTQGEENLFETGDDEVIEMRDSQQTEFTQNAATGLNISRDETVLQEEARNKAGTPVSELTKQMDTVLSSSPDVLFDPINGLTPDEEALSNERICQKRRFSDSEERHTKKQFSLENVQEGEILHDAKTLAGNVIADLSDSSADSENLSPDIKETTEEMEYNILVNFFKTMGYSQEIVEKVIKVYGPSTEPLLLLEEIEKENKRFQEDREFSAGTVYPETNKTKNKGVYSSTNELTTDSTPKKTQAHTQQNMVEKFSQLPFKVEAKPCTSNCRINTFRTVPIEQKHEVWGSNQNYICNTDPETDGLSPSVASPSPKEVNFVSRGASSHQPRVPLFPENGLHQQPEPLLPNNMKSACEKRLGCCSSPHSKPNCSTLSPPMPLPQLLPSVTDARSAGPSDHIDSSVTGVQRFRDTLKIPYKLELKNEPGRTDLKHIVIDGSNVAITHGLKKFFSCRGIAIAVEYFWKLGNRNITVFVPQWRTRRDPNVTEQHFLTQLQELGILSLTPARMVFGERIASHDDRFLLHLADKTGGIIVTNDNFREFVNESVSWREIITKRLLQYTFVGDIFMVPDDPLGRSGPRLEEFLQKEVCLRDMQPLLSALPNVGMFDPSFRVPGTQAASTSHQPPTRIQGAPSSHWLPQQPHFPLLPALPSLQQNLPMPAQRSSAETNELREALLKIFPDSEQRLKIDQILVAHPYMKDLNALSAMVLD
In the case of B1, the binding is reported as “binds”.

— article doi:10.1101/2020.10.21.349357
